The list shows only some results of the screen, not a fair sample: it is rich in T/C values a quarter to a half above the control, in often repeated tests (any T/C) and in doses without a T/C. Further doses and runs are listed elsewhere. T/C: endpoint of the treated group in % of that of the vehicle group. Some entries give survivors of the animals treated and no T/C: the source files T/C as zero there, which appears to mark a toxic dose or a test without result, not a measured value. Some survivor counts are full or nearly so, which does not show that the dose was tolerated: survival well below the control is almost never listed, so the zero probably covers shortened survival too. Counts of survivors are from the toxicity check (mostly the fifth day) where no day follows; animals may have died later. Schedule codes are those of the source, taken here to give the interval after Q, in days (D) or hours (H), and the number of doses after X. Where survival is the endpoint, the PubChem record calls one and a half times the control and up active, and a quarter to a half above the control has no call in these data; cut-offs in other NCI protocols can differ. Some T/C values carry the count of animals alive at the toxicity check (mostly the fifth day); where none is given, no animal had died by that day. Some entries hold several experiments; the values are given in rising order. Brackets with × say how often a value occurs here.
System: L1210 leukemia ip in BDF1 mice, survival T/C
Test: NCI In Vivo Anticancer Drug Screen. Data for tumor model L1210 Leukemia (intraperitoneal) in B6D2F1 (BDF1) mice
Conditions: higher T/C = longer survival
[1] = T/C endpoint: mean survival time, dose: 200.0 mg/kg/injection, schedule: Q04DX003 (ip), vehicle: saline
[2] = T/C endpoint: mean survival time, dose: 400.0 mg/kg/injection, schedule: Q04DX003 (ip), vehicle: saline
[3] = T/C endpoint: mean survival time, dose: 50.0 mg/kg/injection, schedule: Q01DX001 (ip), vehicle: carboxymethylcellulose (CMC)

In the case of `CCCCCCCCCCCCCCCC(=O)OCC1OC(n2ccc(N)nc2=O)C(O)C1O` (stereo unspecified), the T/C (T/C endpoint: mean survival time, dose: 5.0 mg/kg/injection, schedule: Q01DX005 (ip), vehicle: other) is reported as 132 and 145 % of control, the T/C (T/C endpoint: mean survival time, dose: 6.25 mg/kg/injection, schedule: Q01DX001 (ip), vehicle: saline) is reported as 141 % of control and the T/C (T/C endpoint: mean survival time, dose: 10.0 mg/kg/injection, schedule: Q01DX009 (ip), vehicle: saline with Tween-80, evaluated on day 5) is reported as 105 and 251 % of control. The T/C (T/C endpoint: mean survival time, dose: 10.0 mg/kg/injection, schedule: Q01DX009 (ip), vehicle: saline with Tween-80, evaluated on day 45) was 105 % of control, the T/C (T/C endpoint: mean survival time, dose: 10.0 mg/kg/injection, schedule: Q01DX009 (ip), vehicle: saline with Tween-80, evaluated on day 60) was 251 % of control and the T/C (T/C endpoint: mean survival time, dose: 15.0 mg/kg/injection, schedule: Q01DX009 (ip), vehicle: saline with Tween-80, evaluated on day 5) was 127 and 372 % of control. For the same molecule, the T/C (T/C endpoint: mean survival time, dose: 15.0 mg/kg/injection, schedule: Q01DX009 (ip), vehicle: saline with Tween-80, evaluated on day 45) was 127 % of control, the T/C (T/C endpoint: mean survival time, dose: 15.0 mg/kg/injection, schedule: Q01DX009 (ip), vehicle: saline with Tween-80, evaluated on day 60) was 372 % of control and the T/C (T/C endpoint: mean survival time, dose: 20.0 mg/kg/injection, schedule: Q12HX008 (ip), vehicle: other, evaluated on day 60) was 283 and 402 % of control. The T/C (T/C endpoint: mean survival time, dose: 20.0 mg/kg/injection, schedule: Q12HX008 (ip), vehicle: other, evaluated on day 90) was 292 and 651 % of control [9 of 10 alive], the T/C (T/C endpoint: mean survival time, dose: 25.0 mg/kg/injection, schedule: Q08DX008 (ip), vehicle: other) was 144 % of control and the T/C (T/C endpoint: mean survival time, dose: 25.0 mg/kg/injection, schedule: Q12HX008 (ip), vehicle: other, evaluated on day 60) was 437 and 504 % of control. For the same molecule, the T/C (T/C endpoint: mean survival time, dose: 25.0 mg/kg/injection, schedule: Q12HX008 (ip), vehicle: other, evaluated on day 90) was 348 and 691 % of control, the T/C (T/C endpoint: mean survival time, dose: 30.0 mg/kg/injection, schedule: Q01DX005 (ip), vehicle: other, evaluated on day 45) was 267, 289, 294 % of control and the T/C (T/C endpoint: mean survival time, dose: 30.0 mg/kg/injection, schedule: Q01DX005 (ip), vehicle: other, evaluated on day 60) was 313 and 325 % of control. For the same molecule, the T/C (T/C endpoint: mean survival time, dose: 30.0 mg/kg/injection, schedule: Q12HX008 (ip), vehicle: other, evaluated on day 60) was 388 and 527 % of control, the T/C (T/C endpoint: mean survival time, dose: 30.0 mg/kg/injection, schedule: Q12HX008 (ip), vehicle: other, evaluated on day 90) was 260 and 406 % of control and the T/C (T/C endpoint: mean survival time, dose: 54.0 mg/kg/injection, schedule: Q01DX009 (oral), vehicle: saline with Tween-80) was 127 % of control. For the same molecule, the T/C (T/C endpoint: mean survival time, dose: 80.0 mg/kg/injection, schedule: Q01DX009 (oral), vehicle: saline with Tween-80) was 127 % of control, the T/C (T/C endpoint: mean survival time, dose: 100.0 mg/kg/injection, schedule: Q01DX001 (ip), vehicle: saline with Tween-80, evaluated on day 5) was 224 and 357 % of control and the T/C (T/C endpoint: mean survival time, dose: 100.0 mg/kg/injection, schedule: Q01DX001 (ip), vehicle: saline with Tween-80, evaluated on day 45) was 168, 220, 222, 224, 257, 260, 290 % of control. The T/C (T/C endpoint: mean survival time, dose: 100.0 mg/kg/injection, schedule: Q01DX001 (ip), vehicle: saline with Tween-80, evaluated on day 60) was 290, 302, 357 % of control, the T/C (T/C endpoint: mean survival time, dose: 150.0 mg/kg/injection, schedule: Q01DX001 (ip), vehicle: other, evaluated on day 45) was 293, 303, 306 % of control and the T/C (T/C endpoint: mean survival time, dose: 150.0 mg/kg/injection, schedule: Q01DX001 (ip), vehicle: other, evaluated on day 60) was 289 and 570 % of control. For the same molecule, the T/C (T/C endpoint: mean survival time, dose: 150.0 mg/kg/injection, schedule: Q01DX001 (ip), vehicle: saline with Tween-80, evaluated on day 5) was 237 and 445 % of control, the T/C (T/C endpoint: mean survival time, dose: 150.0 mg/kg/injection, schedule: Q01DX001 (ip), vehicle: saline with Tween-80, evaluated on day 45) was 237, 323 (2×), 325, 342, 363, 382 % of control and the T/C (T/C endpoint: mean survival time, dose: 150.0 mg/kg/injection, schedule: Q01DX001 (ip), vehicle: saline with Tween-80, evaluated on day 60) was 341, 400, 445 % of control. For the same molecule, the T/C (T/C endpoint: mean survival time, dose: 200.0 mg/kg/injection, schedule: Q01DX001 (ip), vehicle: other, evaluated on day 45) was 272, 281, 307 % of control, the T/C (T/C endpoint: mean survival time, dose: 200.0 mg/kg/injection, schedule: Q01DX001 (ip), vehicle: other, evaluated on day 60) was 294 and 450 % of control and the T/C (T/C endpoint: mean survival time, dose: 200.0 mg/kg/injection, schedule: Q01DX001 (ip), vehicle: saline with Tween-80, evaluated on day 45) was 310, 359, 369 [9 of 10 alive], 452 % of control. For the same molecule, the T/C (T/C endpoint: mean survival time, dose: 200.0 mg/kg/injection, schedule: Q01DX001 (ip), vehicle: saline with Tween-80, evaluated on day 60) was 378 and 386 % of control, the survivor count (T/C endpoint: mean survival time, dose: 200.0 mg/kg/injection, schedule: Q01DX005 (ip), vehicle: saline) was 6 of 6 and the survivor count (T/C endpoint: mean survival time, dose: 800.0 mg/kg/injection, schedule: Q01DX001 (ip), vehicle: saline) was 6 of 10. The survivor count (T/C endpoint: median survival time, dose: 600.0 mg/kg/injection, schedule: Q01DX001 (ip), vehicle: saline) was 8 of 8.

For `FC(F)(F)c1ccc2c(c1)N(CCCNCCN1CCOCC1)c1ccccc1S2`, the survivor count (T/C endpoint: mean survival time, dose: 50.0 mg/kg/injection, schedule: Q01DX009 (ip), vehicle: saline) was 2 of 6, the survivor count (T/C endpoint: mean survival time, dose: 100.0 mg/kg/injection, schedule: Q04DX003 (ip), vehicle: saline) was 1 of 4 and the survivor count [1] was 0 of 4. For the same molecule, the survivor count [2] was 0 of 4.

With `O=C(c1cc(C(F)(F)F)cc(C(F)(F)F)c1)N1CC1` the survivor count (T/C endpoint: mean survival time, dose: 25.0 mg/kg/injection, schedule: Q01DX009 (ip), vehicle: water) was 5 of 6.

In the case of `CCOC(=O)c1c(NC(=O)CCC(=O)Nc2sc(C)c(C)c2C(=O)OCC)sc(C)c1C`, the survivor count (T/C endpoint: mean survival time, dose: 50.0 mg/kg/injection, schedule: Q01DX009 (ip), vehicle: Klucel (hydroxypropylcellulose) (HPC)) is reported as 6 of 6 and the survivor count (T/C endpoint: mean survival time, dose: 200.0 mg/kg/injection, schedule: Q01DX009 (ip), vehicle: Klucel (hydroxypropylcellulose) (HPC)) is reported as 6 of 6.

`C[N+](C)(C)C1(Cc2ccccc2)c2ccccc2-c2ccc(Br)cc21` (stereo unspecified) was tested, and the survivor count [1] was 3 of 6 and the survivor count [2] was 0 of 6.

With `CCCCn1cnc2ccc3[nH]c(C)nc3c2c1=O` the survivor count [3] was 1 of 6.

For `C/C(CCc1ccccc1)=N/N(C)C`, the survivor count (T/C endpoint: mean survival time, dose: 400.0 mg/kg/injection, schedule: Q01DX009 (ip), vehicle: saline) was 2 of 6.

`O=C(O)c1cc([N+](=O)[O-])ccc1O` was tested, and the survivor count [3] was 4 of 4 and the survivor count (T/C endpoint: mean survival time, dose: 400.0 mg/kg/injection, schedule: Q01DX001 (ip), vehicle: carboxymethylcellulose (CMC)) was 2 of 4.

In the case of `OCCN(Cc1cccnc1)Cc1ccccn1`, the survivor count (T/C endpoint: mean survival time, dose: 37.5 mg/kg/injection, schedule: Q01DX001 (ip), vehicle: saline) is reported as 1 of 6, the survivor count (T/C endpoint: mean survival time, dose: 75.0 mg/kg/injection, schedule: Q01DX001 (ip), vehicle: saline) is reported as 0 of 6 and the survivor count (T/C endpoint: mean survival time, dose: 150.0 mg/kg/injection, schedule: Q01DX001 (ip), vehicle: saline) is reported as 0 of 6. The survivor count (T/C endpoint: mean survival time, dose: 300.0 mg/kg/injection, schedule: Q01DX001 (ip), vehicle: saline) was 0 of 6.
